At least one compound was matched to its structure with a doubt left.
Test: Stability of DOTAP/DOPE liposomes as a function of pH (lipid recovery)
Assay type: physicochemical
Conditions: two weeks at 40° C., different pH conditions

CCCCCCCC/C=C\CCCCCCCC(=O)OC[C@H](COP(=O)(O)OCCN)OC(=O)CCCCCCC/C=C\CCCCCCCC [DOPE, 1,2-di-(9Z-octadecenoyl)-sn-glycero-3-phosphoethanolamine]
lipid recovery from DOTAP/DOPE liposomes: hydrolysis took place

Reference: patent US11173120B2, “Stable formulations of lipids and liposomes” (BioNTech RNA Pharmaceuticals GmbH, priority 2014, dated 2021)
